According to patent US6455583B1, “Method for treating meibomian gland disease” (The University of Miami, priority 1998, dated 2002):
“Also recorded” adds a separate entry of the source. For at least one compound, name, drawing or mass did not settle the structure.

Assays:
[1] = test system: patients with ocular rosacea; test: Topical oxytetracycline ointment in patients with meibomian gland disease associated with rosacea and delayed tear clearance (Example 5); type: in vivo, human
Procedure: Eleven ( 11) patients with ocular irritation symptoms due to meibomian gland disease associated with rosacea and delayed tear clearance were treated with a commercially available oxytetracycline ointment (Terak, Akorn Pharmaceuticals) as a topical administration to the ocular surface or the eyelids. Seventy-three percent (73%) of these patients had complete resolution of irritation symptoms.

[2] = test system: patients with meibomian gland disease; test: Oral doxycycline therapy in patients (Example 4); type: in vivo, human; details: oral doxycycline 50 mg twice a day for 3 weeks; six patients
[3] = test system: patients with meibomian gland disease and delayed tear clearance; test: Topical 0.025% doxycycline solution in patients with meibomian gland disease and delayed tear clearance (Example 6); type: in vivo, human
Source text: Tetracyclines and chemically modified tetracyclines for topical administration can be added to buffered and electrolyte balanced aqueous solutions, buffered and electrolyte balanced aqueous solutions with a lubricating polymer, mineral oil or petrolatum-based ointment, other oils, liposomes, cylcodextrins, sustained release polymers or gels in a range from 0.001 to 3% (weight per volume or weight per weight). These preparations can be administered to the preocular tear film or onto the eyelid skin or lid margin 1 to 6 times per day for a period up to the lifetime of the patient. For example, an eye drop solution comprising doxycycline as an active ingredient was prepared by dissolving pharmaceutical grade doxycycline hydrochloride powder in an electrolyte-balanced salt solution (BSS™, Alcon, Ft. Worth, Tex.) to a final concentration of 0.025%.
The solution was prepared as described herein.

IL-1β = test: Precursor and mature IL-1β in supernatants of LPS-stimulated human corneal epithelial cell cultures; type: cell-based
IL-1RA = IL-1RA release by human corneal epithelial cell cultures; type: cell-based; details: 24 h, FIG. 7
Procedure: Media=negative control; LPS=cultures treated with lipopolysaccharide for 24 h; Doxy=cultures treated with doxycycline (5 μg/ml) for 24 h; CMT 3=cultures treated with chemically modified tetracycline CMT 3 (1 μg/ml) for 24 hr; Doxy+LPS=cultures treated with LPS and doxycycline (5 μg/ml) for 24 h; CMT 3+LPS=cultures treated with LPS and chemically modified tetracycline CMT 3 (1 μg/ml) for 24 hr.
IL-1RA has an anti-inflammatory effect by competing with the pro-inflammatory forms of IL-1 (IL-1α and IL-1β) for the type 1 receptor. […] Furthermore, the concentration of IL-1RA in corneal epithelial cultures stimulated with LPS and treated with either doxycycline or CMT-3 was greater than cultures exposed to LPS alone (FIG. 7). These findings indicate tetracyclines are anti-inflammatory due to their ability to stimulate IL-1RA release by the human corneal epithelium.

[4] = 0.025% aqueous solution, 3 to 4 times per day for 2 weeks

| SMILES | improvement in symptoms compared with orally administered tetracycline ([1]; several patients who had previously used oral tetracycline) | patients with complete resolution of symptoms (count) ([1]; topical ointment, 11 patients) | patients with moderate but not complete relief of symptoms ([1]; topical ointment, 11 patients) | patients with decreased conjunctival hyperemia [2] | patients with decreased corneal fluorescein staining [2] | patients with improvement in irritation symptoms [2] | patients with reduction of tear fluid IL-1 concentration [2] | patients with moderate to complete relief of ocular irritation symptoms [3, 4] | reduction of corneal fluorescein staining [3, 4] | RESPONSE (per patient) ([3]; 0.025% topical doxycycline solution, one line per patient 1-11, diagnosis MGD, DTC) | patients with complete resolution of symptoms (count) ([3]; topical solution (doxycycline eye drops), 11 patients) | ratio of mature to precursor IL-1β (IL-1β; LPS + doxycycline (5 μg/ml) 24 h, FIG. 6) | level of the mature biologically active form of IL-1β (IL-1β; LPS + doxycycline (5 μg/ml) 24 h vs LPS-stimulated cultures without doxycycline, FIG. 5) | level of IL-1β mRNA (IL-1β; doxycycline-treated cultures) | concentration of IL-1RA in LPS-stimulated cultures compared to LPS alone (IL-1RA; LPS + doxycycline 5 μg/ml or CMT 3 1 μg/ml) | release of IL-1RA into the media compared to untreated cultures (IL-1RA; doxycycline 5 μg/ml or CMT 3 1 μg/ml) |
| --- | --- | --- | --- | --- | --- | --- | --- | --- | --- | --- | --- | --- | --- | --- | --- | --- |
| CN(C)[C@@H]1C(O)=C(C(N)=O)C(=O)[C@@]2(O)C(O)=C3C(=O)c4c(O)cccc4[C@@](C)(O)[C@H]3[C@H](O)[C@@H]12 [oxytetracycline] | better | 8 of 11 | Three | – | – | – | – | – | – | – | – | – | – | – | – | – |
| C[C@H]1c2cccc(O)c2C(=O)C2=C(O)[C@]3(O)C(=O)C(C(N)=O)=C(O)[C@@H](N(C)C)[C@@H]3[C@@H](O)[C@@H]21 [doxycycline] | – | – | – | all patients | all patients | 5 of 6 | 5 of 6 | 10 of 11 | several of these patients | complete, better than oral; also recorded: moderate, not as good as oral; also recorded: moderate, better than oral; also recorded: compete, better than oral | 10 of 11 | markedly decreased | significantly decreased | decrease | greater | significantly increased |
